# Experimental data: PubChem BioAssay AID1259254 (NCATS, 2017)
# Purpose: 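Genome-wide screen for genes that prevent DNA re-replication in cancer cells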 (primary screen)
# Cells: human HCT116 colorectal cancer cells
# Reagents: single siRNA against human genes
# Timing: 3 days
# Measurement: 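Nuclei stained with Hoechst and imaged; cell-cycle phase assigned by DNA content; G2 share scaled per plate, non-targeting siRNA 0%, GMNN siRNA 100%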
# Scale: G2 robust z-score: higher = more G2 cells, more excess DNA replication
# Rule for the call: 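Active siRNAs have a G2 robust z of 5 or more median absolute deviations over the median, which in these data means about 38% or higher of GMNN control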
# The deposit covers about 59,000 reagents; this is a part drawn at random. Of all reagents, about 1,550 (2.6%) were called active. 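G2 share is only a proxy for re-replication; each gene was hit by three separate siRNAs, and active genes were retested.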 Entries without a mark were called inactive. The numbers tell different reagents against one gene apart. Not all columns of the deposit are shown. The record does not give: the amount of reagent.
target gene,reagent no.,G2 robust z-score
MORC2 (MORC family CW-type zinc finger 2),1,12.8 (active)
MORC2 (MORC family CW-type zinc finger 2),2,0.0359
MORC2 (MORC family CW-type zinc finger 2),3,-0.23
OTOGL (otogelin like),1,-0.607
OTOGL (otogelin like),2,-0.0162
OTOGL (otogelin like),3,0.15
PTGR2 (prostaglandin reductase 2),1,-0.612
PTGR2 (prostaglandin reductase 2),2,-0.722
PTGR2 (prostaglandin reductase 2),3,-0.484
SST (somatostatin),1,1.42
SST (somatostatin),2,-0.836
SST (somatostatin),3,1.38
LPP,1,0.0786
LPP,2,-0.63
LPP,3,0.0113
ELOC (elongin C),1,-0.549
ELOC (elongin C),2,0.93
ELOC (elongin C),3,-0.669
LOC729680 (retired record),1,0.0936
LOC729680 (retired record),2,0.588
LOC729680 (retired record),3,0.123
TXLNB (taxilin beta),1,3.08
TXLNB (taxilin beta),2,3.86
TXLNB (taxilin beta),3,1.77
RCCD1 (RCC1 domain containing 1),1,0.75
RCCD1 (RCC1 domain containing 1),2,2.51
RCCD1 (RCC1 domain containing 1),3,0.902
ZNF302 (zinc finger protein 302),1,-0.129
ZNF302 (zinc finger protein 302),2,-0.447
ZNF302 (zinc finger protein 302),3,1.27
FBXO25 (F-box protein 25),1,-0.279
FBXO25 (F-box protein 25),2,0.101
FBXO25 (F-box protein 25),3,-0.674
ZMYND11 (zinc finger MYND-type containing 11),1,-0.229
ZMYND11 (zinc finger MYND-type containing 11),2,0.378
ZMYND11 (zinc finger MYND-type containing 11),3,-0.135
SLC10A5,1,-0.554
SLC10A5,2,0.919
SLC10A5,3,0.903
HELB (DNA helicase B),1,-0.168
HELB (DNA helicase B),2,-0.36
HELB (DNA helicase B),3,0.263
BUD23 (BUD23 rRNA methyltransferase and ribosome maturation factor),1,1.53
BUD23 (BUD23 rRNA methyltransferase and ribosome maturation factor),2,2.47
BUD23 (BUD23 rRNA methyltransferase and ribosome maturation factor),3,0.645
HOXC12 (homeobox C12),1,1.04
HOXC12 (homeobox C12),2,-0.859
HOXC12 (homeobox C12),3,-1.29
OVOL1 (ovo like transcriptional repressor 1),1,3.78
OVOL1 (ovo like transcriptional repressor 1),2,-0.202
OVOL1 (ovo like transcriptional repressor 1),3,-1.25
PLCH1 (phospholipase C eta 1),1,1.61
PLCH1 (phospholipase C eta 1),2,-0.357
PLCH1 (phospholipase C eta 1),3,-0.421
CASZ1 (castor zinc finger 1),1,0.314
CASZ1 (castor zinc finger 1),2,4.3
CASZ1 (castor zinc finger 1),3,-0.322
VMA21 (vacuolar ATPase assembly factor VMA21),1,3.53
VMA21 (vacuolar ATPase assembly factor VMA21),2,0.712
VMA21 (vacuolar ATPase assembly factor VMA21),3,-0.422
MUCL1 (mucin like 1),1,-0.775
MUCL1 (mucin like 1),2,-0.151
MUCL1 (mucin like 1),3,-0.32
ZBED2 (zinc finger BED-type containing 2),1,4.88
ZBED2 (zinc finger BED-type containing 2),2,-1.25
ZBED2 (zinc finger BED-type containing 2),3,-0.592
PAFAH2 (platelet activating factor acetylhydrolase 2),1,-0.282
PAFAH2 (platelet activating factor acetylhydrolase 2),2,-0.777
PAFAH2 (platelet activating factor acetylhydrolase 2),3,0.282

Active calls (from the list above):
target gene,reagent no.,G2 robust z-score
MORC2 (MORC family CW-type zinc finger 2),1,12.8 (active)
